Reference: PMC4731781, “The β2 clamp in the Mycobacterium tuberculosis DNA polymerase III αβ2ε replicase promotes polymerization and reduces exonuclease activity” (Scientific Reports, 2016)
These are yes or no findings as the source states them, for the method shown. In cells and extracts the contact can be indirect. Some entries that bind do so weakly or less than the wild type. Tags and fused reporters may be left off the sequences shown.

Target: T1, Mtb DNA Pol III β2 clamp, endogenous in Mtb H37Rv (Mycobacterium tuberculosis (endogenous in Mtb H37Rv)) (UniProt P9WNU1)
T1 sequence: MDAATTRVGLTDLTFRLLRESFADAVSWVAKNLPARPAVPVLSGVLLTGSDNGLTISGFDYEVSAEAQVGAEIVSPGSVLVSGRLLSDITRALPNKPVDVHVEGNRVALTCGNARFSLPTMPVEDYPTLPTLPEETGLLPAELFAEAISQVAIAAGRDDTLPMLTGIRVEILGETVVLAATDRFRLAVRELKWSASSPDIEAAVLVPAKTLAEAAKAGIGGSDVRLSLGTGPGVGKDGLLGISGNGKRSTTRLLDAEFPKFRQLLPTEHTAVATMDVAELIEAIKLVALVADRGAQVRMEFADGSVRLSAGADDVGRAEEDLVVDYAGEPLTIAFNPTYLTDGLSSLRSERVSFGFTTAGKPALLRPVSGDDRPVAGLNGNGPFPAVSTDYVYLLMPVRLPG
Experiment: co-IP

B1: Mtb DNA Pol III α subunit, endogenous in Mtb H37Rv (enzyme, UniProt P9WNT7 1-1184)
chain: MSGSSAGSSFVHLHNHTEYSMLDGAAKITPMLAEVERLGMPAVGMTDHGNMFGASEFYNSATKAGIKPIIGVEAYIAPGSRFDTRRILWGDPSQKADDVSGSGSYTHLTMMAENATGLRNLFKLSSHASFEGQLSKWSRMDAELIAEHAEGIIITTGCPSGEVQTRLRLGQDREALEAAAKWREIVGPDNYFLELMDHGLTIERRVRDGLLEIGRALNIPPLATNDCHYVTRDAAHNHEALLCVQTGKTLSDPNRFKFDGDGYYLKSAAEMRQIWDDEVPGACDSTLLIAERVQSYADVWTPRDRMPVFPVPDGHDQASWLRHEVDAGLRRRFPAGPPDGYRERAAYEIDVICSKGFPSYFLIVADLISYARSAGIRVGPGRGSAAGSLVAYALGITDIDPIPHGLLFERFLNPERTSMPDIDIDFDDRRRGEMVRYAADKWGHDRVAQVITFGTIKTKAALKDSARIHYGQPGFAIADRITKALPPAIMAKDIPLSGITDPSHERYKEAAEVRGLIETDPDVRTIYQTARGLEGLIRNAGVHACAVIMSSEPLTEAIPLWKRPQDGAIITGWDYPACEAIGLLKMDFLGLRNLTIIGDAIDNVRANRGIDLDLESVPLDDKATYELLGRGDTLGVFQLDGGPMRDLLRRMQPTGFEDVVAVIALYRPGPMGMNAHNDYADRKNNRQAIKPIHPELEEPLREILAETYGLIVYQEQIMRIAQKVASYSLARADILRKAMGKKKREVLEKEFEGFSDGMQANGFSPAAIKALWDTILPFADYAFNKSHAAGYGMVSYWTAYLKANYPAEYMAGLLTSVGDDKDKAAVYLADCRKLGITVLPPDVNESGLNFASVGQDIRYGLGAVRNVGANVVGSLLQTRNDKGKFTDFSDYLNKIDISACNKKVTESLIKAGAFDSLGHARKGLFLVHSDAVDSVLGTKKAEALGQFDLFGSNDDGTGTADPVFTIKVPDDEWEDKHKLALEREMLGLYVSGHPLNGVAHLLAAQVDTAIPAILDGDVPNDAQVRVGGILASVNRRVNKNGMPWASAQLEDLTGGIEVMFFPHTYSSYGADIVDDAVVLVNAKVAVRDDRIALIANDLTVPDFSNAEVERPLAVSLPTRQCTFDKVSALKQVLARHPGTSQVHLRLISGDRITTLALDQSLRVTPSPALMGDLKELLGPGCLGS
With B1 the binding was “binds”.
